Source: paper PMC10992608
For at least one entry, the source does not settle the construct or the ends of the probe.

System: HosA
Assay: EMSA
Conditions: no p-HBA, 0.1 uM DNA, 0-0.5 uM HosA; recombinant protein

Sequence: TACTGAGCCATGTATCCAGGTCATTGCGTTCGTATACGAACAGTAGCTCTGACAGTTCCA / GTCAGAGCTACTGTTCGTATACGAAC [irregular dsDNA (60 nt HosA-F / 26 nt HosA-R)]
- binding result: binds
